PubChem BioAssay AID1259254, NCATS – 2017
Shown is one part, drawn at random, of about 59,000 reagents tested. In the full data, about 1,550 (2.6%) got an active call. 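G2 share is only a proxy for re-replication; each gene was hit by three separate siRNAs, and active genes were retested.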 Unmarked entries are inactive. The numbers tell different reagents against one gene apart. Further read-outs or replicates are left out here. Not given: the amount of reagent.

Assay: 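Finding genes that stop cells copying their DNA twice in one cycle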 (primary screen)
Cell system: human HCT116 colorectal cancer cells
Reagents: single siRNA against human genes
Timing: 3 days
Detection: 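Imaged Hoechst DNA stain sorts each cell into a cycle phase by DNA amount; per plate, G2 fraction set to 0% for non-targeting and 100% for GMNN siRNA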
Direction: G2 robust z-score and G2 cells, % of GMNN control: higher = more G2 cells, more excess DNA replication
Hit rule: 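Active siRNAs have a G2 robust z of 5 or more median absolute deviations over the median, which in these data means about 38% or higher of GMNN control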

HABP4 #1
- G2 robust z-score: -0.958
- G2 cells, % of GMNN control: -3.77

HABP4 #2
- G2 robust z-score: 0.879
- G2 cells, % of GMNN control: 9.15

HABP4 #3
- G2 robust z-score: -0.524
- G2 cells, % of GMNN control: -0.719

FGF1 #1
- G2 robust z-score: 3.69
- G2 cells, % of GMNN control: 28.9

FGF1 #2
- G2 robust z-score: -1.18
- G2 cells, % of GMNN control: -5.36

FGF1 #3
- G2 robust z-score: 1.09
- G2 cells, % of GMNN control: 10.7

CHN1 #1
- G2 robust z-score: -0.158
- G2 cells, % of GMNN control: 1.85

CHN1 #2
- G2 robust z-score: -0.331
- G2 cells, % of GMNN control: 0.641

CHN1 #3
- G2 robust z-score: -1.44
- G2 cells, % of GMNN control: -7.16

PLEKHH1 #1
- G2 robust z-score: -0.614
- G2 cells, % of GMNN control: -1.35

PLEKHH1 #2
- G2 robust z-score: 0.69
- G2 cells, % of GMNN control: 7.82

PLEKHH1 #3
- G2 robust z-score: -0.532
- G2 cells, % of GMNN control: -0.774

HLTF #1
- G2 robust z-score: 1.52
- G2 cells, % of GMNN control: 13.6

HLTF #2
- G2 robust z-score: 2.39
- G2 cells, % of GMNN control: 19.8

HLTF #3
- G2 robust z-score: -0.676
- G2 cells, % of GMNN control: -1.79

WDR82 #1
- G2 robust z-score: 0.36
- G2 cells, % of GMNN control: 5.5

WDR82 #2
- G2 robust z-score: 0.631
- G2 cells, % of GMNN control: 7.41

WDR82 #3
- G2 robust z-score: -0.822
- G2 cells, % of GMNN control: -2.82

FABP2 #1
- G2 robust z-score: -0.573
- G2 cells, % of GMNN control: -1.06

FABP2 #2
- G2 robust z-score: 0.211
- G2 cells, % of GMNN control: 4.45

FABP2 #3
- G2 robust z-score: 0.0775
- G2 cells, % of GMNN control: 3.51

KCNJ8 #1
- G2 robust z-score: -0.137
- G2 cells, % of GMNN control: 2

KCNJ8 #2
- G2 robust z-score: -0.022
- G2 cells, % of GMNN control: 2.81

KCNJ8 #3
- G2 robust z-score: -1.15
- G2 cells, % of GMNN control: -5.15

Already shown: 2 of the entries above.
HLTF #3
- G2 robust z-score: -0.676
- G2 cells, % of GMNN control: -1.79

WDR82 #1
- G2 robust z-score: 0.36
- G2 cells, % of GMNN control: 5.5
